Measured values reported in publication PMC5900569.
Results are given in words; binding and its absence hold for the method and conditions named.

T1: Homo sapiens Tudor staphylococcal nuclease (hTSN) (Homo sapiens), Q7KZF4
T1 chain: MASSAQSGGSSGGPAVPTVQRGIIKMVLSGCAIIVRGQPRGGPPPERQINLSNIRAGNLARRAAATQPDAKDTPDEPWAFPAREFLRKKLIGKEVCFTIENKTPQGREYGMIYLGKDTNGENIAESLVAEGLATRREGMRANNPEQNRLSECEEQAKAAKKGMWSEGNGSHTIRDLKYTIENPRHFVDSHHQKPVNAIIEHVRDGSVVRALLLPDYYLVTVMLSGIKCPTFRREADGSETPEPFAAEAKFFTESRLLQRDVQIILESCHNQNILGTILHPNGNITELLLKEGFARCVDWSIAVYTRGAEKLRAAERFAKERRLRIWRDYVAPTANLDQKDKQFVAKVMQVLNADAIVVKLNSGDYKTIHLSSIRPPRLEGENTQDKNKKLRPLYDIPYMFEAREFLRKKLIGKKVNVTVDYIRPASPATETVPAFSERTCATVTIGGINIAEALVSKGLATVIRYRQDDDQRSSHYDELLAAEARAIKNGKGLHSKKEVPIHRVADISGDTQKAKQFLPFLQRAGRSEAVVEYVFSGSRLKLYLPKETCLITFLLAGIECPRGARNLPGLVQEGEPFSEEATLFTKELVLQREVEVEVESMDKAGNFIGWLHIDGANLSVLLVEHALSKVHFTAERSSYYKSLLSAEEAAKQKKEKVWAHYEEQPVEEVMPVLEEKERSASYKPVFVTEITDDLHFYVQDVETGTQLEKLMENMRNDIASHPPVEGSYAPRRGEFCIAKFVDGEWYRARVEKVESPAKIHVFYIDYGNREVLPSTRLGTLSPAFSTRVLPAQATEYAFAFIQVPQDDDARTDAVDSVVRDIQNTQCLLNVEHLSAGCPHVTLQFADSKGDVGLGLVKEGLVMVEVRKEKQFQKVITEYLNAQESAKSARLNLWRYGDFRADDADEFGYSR


Key:
[1] = biological target: T1, Homo sapiens Tudor staphylococcal …; assay: SEC-MALS; 1 mg/mL, 100 µL injected on Agilent-Bio SEC-3 column; PBS (pH 7.4) with 150 mM NaCl and 5 mM β-mercaptoethanol, 0.2 mL/min; both purified; settings: remark: other sources report otherwise
[2] = biological target: T1, Homo sapiens Tudor staphylococcal …; assay: AUC; sedimentation velocity, 40,000 rpm, 4°C; protein at OD280 of 1.0 in 50 mM HEPES (pH 7.0), 150 mM NaCl, 10 mM imidazole, 1 mM β-mercaptoethanol; c(s) distribution (SEDFIT); both purified; settings: remark: other sources report otherwise
[3] = biological target: Caenorhabditis elegans Tudor staphylococcal nuclease (cTSN) (Caenorhabditis elegans) (UniProt Q19328); assay: SEC-MALS; 1 mg/mL, 100 µL injected on Agilent-Bio SEC-3 column; PBS (pH 7.4) with 150 mM NaCl and 5 mM β-mercaptoethanol, 0.2 mL/min; both purified
[4] = biological target: Caenorhabditis elegans Tudor staphylococcal nuclease (cTSN) (Caenorhabditis elegans) (UniProt Q19328); assay: AUC; sedimentation velocity, 40,000 rpm, 4°C; protein at OD280 of 1.0 in 50 mM HEPES (pH 7.0), 150 mM NaCl, 10 mM imidazole, 1 mM β-mercaptoethanol; c(s) distribution (SEDFIT); both purified

| binding [1] | binding [2] | binding [3] | binding [4] | Binder |
| --- | --- | --- | --- | --- |
| no binding (tested: 1 mg/mL) | no binding (tested: OD280 of 1.0) | – | – | Homo sapiens Tudor staphylococcal nuclease (hTSN), Q7KZF4 1-910 (enzyme) MASSAQSGGSSGGPAVPTVQRGIIKMVLSGCAIIVRGQPRGGPPPERQINLSNIRAGNLARRAAATQPDAKDTPDEPWAFPAREFLRKKLIGKEVCFTIENKTPQGREYGMIYLGKDTNGENIAESLVAEGLATRREGMRANNPEQNRLSECEEQAKAAKKGMWSEGNGSHTIRDLKYTIENPRHFVDSHHQKPVNAIIEHVRDGSVVRALLLPDYYLVTVMLSGIKCPTFRREADGSETPEPFAAEAKFFTESRLLQRDVQIILESCHNQNILGTILHPNGNITELLLKEGFARCVDWSIAVYTRGAEKLRAAERFAKERRLRIWRDYVAPTANLDQKDKQFVAKVMQVLNADAIVVKLNSGDYKTIHLSSIRPPRLEGENTQDKNKKLRPLYDIPYMFEAREFLRKKLIGKKVNVTVDYIRPASPATETVPAFSERTCATVTIGGINIAEALVSKGLATVIRYRQDDDQRSSHYDELLAAEARAIKNGKGLHSKKEVPIHRVADISGDTQKAKQFLPFLQRAGRSEAVVEYVFSGSRLKLYLPKETCLITFLLAGIECPRGARNLPGLVQEGEPFSEEATLFTKELVLQREVEVEVESMDKAGNFIGWLHIDGANLSVLLVEHALSKVHFTAERSSYYKSLLSAEEAAKQKKEKVWAHYEEQPVEEVMPVLEEKERSASYKPVFVTEITDDLHFYVQDVETGTQLEKLMENMRNDIASHPPVEGSYAPRRGEFCIAKFVDGEWYRARVEKVESPAKIHVFYIDYGNREVLPSTRLGTLSPAFSTRVLPAQATEYAFAFIQVPQDDDARTDAVDSVVRDIQNTQCLLNVEHLSAGCPHVTLQFADSKGDVGLGLVKEGLVMVEVRKEKQFQKVITEYLNAQESAKSARLNLWRYGDFRADDADEFGYSR |
| – | – | no binding (tested: 1 mg/mL) | no binding (tested: OD280 of 1.0) | Caenorhabditis elegans Tudor staphylococcal nuclease (cTSN) (enzyme, UniProt Q19328 1-914) MTDAAAATPTVPPPAASSANPAVRRGLVKSVLSGDAVILQGQPHNGPPPEWTVYLSNVTAPRLGRRPTDSASATPDEPYAWDSREYLRQKLVGQFVTFVRDFTATSGRDHGRIYLGGTSPADAENVAEGAVSAGLLEVRQGKVADEYSTKLLELQEQAKSAGRGKWNSNAGTIRDIRWVIDNPRELVDKYAQKPIDAVIEMVRDGSTVRAFLLPNFEYITLQLSGVRAPSTRNPNAADSRAEAFSEEAKFFAESRLLQRDVQIILESTSNQNFVGSIVHPKGNIAESLLREGYAKCVDWSIGLCTGGAQKLRDAERQAKEKRLRLWKSYQPTSSAYSGDRKAFTGKVVEIVLSDAVVVQKDDGSEVKLHLSSIRLPRESGDDKATGGPGRQFRPLYDIPFMFQAREFLRKRLLGKKVQIQIDYVQPKSENFPEKTCATIKIGDQNIAEGLISRGLSKVVRHRADDENRSSEYDTLLAAEANAEKGKKGLFADKTAEKKDTHRIQEITGDLAKAKQFLPYLQRGGRAEGVVEFLSGGSRLRIYIPKETVLITFLLGGINCPKGARVGPGGVSTGAAEPFADEAAAFTRKLVLQHEVQLEVESTDKNGNFVGYLYVSPDGNTSRAINLSEALVENGLASLHFTAERSGHYNALLSAENKAKKAKKNIWANFTEEQHQEEVEVQQADTSERKQNFRQVAVTDIAPGALRFSAQNIEDGPKIEKMTTEMRQALAEHPPLAGSYTTKRGDLCVAKFSQDGQWYRCKVESVRAGQAEIVYIDYGNRETIEAVKLAQIPAGFANFPAGVREYNLALAKLPNEDYVQLTSDAFAQYLFGHSSVFINSEYKVGTSEYVTVYYDSGNKKVDIGKSLIAEGLALADHRREPRLQTLVNDYNTTEEVARKSRKNIWEYGDFTGNDI |
